Test results: patent US20170189504A1, “NOVEL PEPTIDES AND COMBINATION OF PEPTIDES FOR USE IN IMMUNOTHERAPY AGAINST VARIOUS CANCERS” (immatics biotechnologies GmbH, priority 2015, published 2017)
For some assays here: For expression read-outs the peptide stands for its source gene, whose mRNA was measured; the gene is not named for every peptide.

Tests used:
HLA-A*02 = test: Identification and relative LC-MS quantitation of HLA-A*02-presented tumor-associated peptides on tissue samples (presentation profiles, Tables 13A, 13B, 15, FIG. 1); design: species or system human; key to Presentation score NHL / Presentation score CLL / Presentation score BRCA / Presentation score AML / Presentation score GB / Presentation score NSCLC / Presentation score GBC_CCC / Presentation score UEC / Presentation score MEL / Presentation score OSCAR / Presentation score GC / Presentation score UBC / Presentation score OC / Presentation score RCC / Presentation score CRC / Presentation score PCA / Presentation score HCC / Presentation score PC / Presentation score SCLC: specifically presented on tumors (++++); very highly over-presented on tumors compared to a panel of normal tissues (+++); highly over-presented on tumors compared to a panel of normal tissues (++); over-presented on tumors compared to a panel of normal tissues (+); settings: for Presentation score OSCAR: esophageal cancer, including cancer of the gastric-esophageal junction (N = 17) vs panel of normal tissues (N = 262); for Presentation score GC: gastric cancer (N = 29) vs panel of normal tissues (N = 262); for Presentation score NSCLC: non-small cell lung cancer (N = 90) vs panel of normal tissues (N = 262); for Peptide Presentation on cancer entities: Table 13A, HLA-A*02-binding tumor-associated peptides, cancer entities on which the peptide was found presented
source genes (mRNA) [1] = test: Gene and exon expression of source genes, TCGA tumor samples compared with normal tissue samples (Lonsdale, 2013) (Table 17); design: species or system human; settings: for Target coverage: over-expression category of source gene, LAML: Acute Myeloid Leukemia (N = 173); for Target coverage: over-expression category of source gene, BRCA: Breast cancer (N = 1104), cutoff more than 2-fold above highest 75% percentile of high and medium risk normal tissue samples; for Target coverage: over-expression category of source gene, READ: Colon and rectal adenocarcinoma (N = 167); for Target coverage: over-expression category of source gene, COAD: Colon and rectal adenocarcinoma (N = 462); for Target coverage: over-expression category of source gene, ESCA: Esophageal cancer (N = 185); for Target coverage: over-expression category of source gene, LUAD: Lung adenocarcinoma (N = 517); for Target coverage: over-expression category of source gene, LUSC: Lung squamous cell carcinoma (N = 503); for Target coverage: over-expression category of source gene, OV: Ovarian serous cystadenocarcinoma (N = 309); for Target coverage: over-expression category of source gene, PRAD: Prostate adenocarcinoma (N = 498); for Target coverage: over-expression category of source gene, SKCM: Skin cutaneous melanoma (N = 473); for Target coverage: over-expression category of source gene, STAD: Stomach adenocarcinoma (N = 415)
source genes (mRNA) [2] = test: Expression profiling of source genes by in-house RNASeq of tumor and normal tissues (Table 18, FIG. 2); design: species or system human; key: very highly over-expressed in tumors compared to a panel of normal tissues (+++); highly over-expressed in tumors compared to a panel of normal tissues (++); over-expressed in tumors compared to a panel of normal tissues (+); settings: source gene of peptide; for Expression score BRCA: BRCA tumors vs panel of normal tissues; for Expression score CLL: chronic lymphocytic leukemia (N = 10) vs panel of normal tissues; for Expression score OSCAR: esophageal cancer incl. gastric-esophageal junction (N = 11) vs panel of normal tissues; for Expression score GB: glioblastoma (N = 24) vs panel of normal tissues; for Expression score NHL: non-Hodgkin lymphoma (N = 10) vs panel of normal tissues; for Expression score NSCLC: non-small cell lung cancer (N = 11) vs panel of normal tissues; for Expression score OC: ovarian cancer (N = 12) vs panel of normal tissues
[3] = cutoff more than 2-fold above highest 75% percentile of normal tissue samples

Substance	Presentation score OSCAR (HLA-A*02; HLA-A*02 peptides)	Presentation score GC (HLA-A*02; HLA-A*02 peptides)	Presentation score NSCLC (HLA-A*02; HLA-A*02 peptides)	Peptide Presentation on cancer entities (HLA-A*02)	Target coverage: over-expression category of source gene, LAML (source genes (mRNA) [1]; [3])	Target coverage: over-expression category of source gene, BRCA (source genes (mRNA) [1])	Target coverage: over-expression category of source gene, READ (source genes (mRNA) [1]; [3])	Target coverage: over-expression category of source gene, COAD (source genes (mRNA) [1]; [3])	Target coverage: over-expression category of source gene, ESCA (source genes (mRNA) [1]; [3])	Target coverage: over-expression category of source gene, LUAD (source genes (mRNA) [1]; [3])	Target coverage: over-expression category of source gene, LUSC (source genes (mRNA) [1]; [3])	Target coverage: over-expression category of source gene, OV (source genes (mRNA) [1]; [3])	Target coverage: over-expression category of source gene, PRAD (source genes (mRNA) [1]; [3])	Target coverage: over-expression category of source gene, SKCM (source genes (mRNA) [1]; [3])	Target coverage: over-expression category of source gene, STAD (source genes (mRNA) [1]; [3])	Expression score BRCA (source genes (mRNA) [2])	Expression score CLL (source genes (mRNA) [2])	Expression score OSCAR (source genes (mRNA) [2])	Expression score GB (source genes (mRNA) [2])	Expression score NHL (source genes (mRNA) [2])	further results
111: peptide found in NUP210 (gene looked up) (AIVDLIHDI; listed as Homo sapiens) [compound 111]	++++	++++	++++	GC, NSCLC, OSCAR	A (>=50% of tumors above the cutoff)	B (>= 20% of tumors above the cutoff, but <50%)	B (>= 20% of tumors above the cutoff, but <50%)	B (>= 20% of tumors above the cutoff, but <50%)	B (>= 20% of tumors above the cutoff, but <50%)	B (>= 20% of tumors above the cutoff, but <50%)	B (>= 20% of tumors above the cutoff, but <50%)	A (>=50% of tumors above the cutoff)	C (>=5% of tumors above the cutoff, but <20%)	B (>= 20% of tumors above the cutoff, but <50%)	B (>= 20% of tumors above the cutoff, but <50%)	+	++	+	+	+++	Target coverage: over-expression category of source gene, BLCA (source genes (mRNA) [1]; Bladder urothelial carcinoma (N = 408), cutoff more than 2-fold above highest 75% percentile of normal tissue samples): C (>=5% of tumors above the cutoff, but <20%); Target coverage: over-expression category of source gene, KICH (source genes (mRNA) [1]; Kidney chromophobe (N = 66), cutoff more than 2-fold above highest 75% percentile of normal tissue samples): C (>=5% of tumors above the cutoff, but <20%); Target coverage: over-expression category of source gene, DLBC (source genes (mRNA) [1]; Lymphoid neoplasm diffuse large B-cell lymphoma (N = 48), cutoff more than 2-fold above highest 75% percentile of normal tissue samples): B (>= 20% of tumors above the cutoff, but <50%); Target coverage: over-expression category of source gene, UCEC (source genes (mRNA) [1]; Uterine corpus endometrial carcinoma (N = 546), cutoff more than 2-fold above highest 75% percentile of normal tissue samples): B (>= 20% of tumors above the cutoff, but <50%); Expression score AML (source genes (mRNA) [2]; acute myeloid leukemia (N = 11) vs panel of normal tissues): +++; Expression score NSCLC (source genes (mRNA) [2]): ++; Expression score OC (source genes (mRNA) [2]): ++; Expression score SCLC (source genes (mRNA) [2]; small cell lung cancer (N = 10) vs panel of normal tissues): ++
242: peptide found in BCAT1 (gene looked up) (WLYGEDHQI; listed as Homo sapiens) [compound 242]			++++	NSCLC, UEC, AML															++	++	Presentation score AML (HLA-A*02; HLA-A*02 peptides, acute myeloid leukemia (N = 18) vs panel of normal tissues (N = 262)): ++++; Presentation score UEC (HLA-A*02; HLA-A*02 peptides, uterine cancer (N = 15) vs panel of normal tissues (N = 262)): ++++; Over-expression category of source gene (target coverage), DLBC (source genes (mRNA) [1]; DLBC = Lymphoid neoplasm diffuse large B-cell lymphoma (N = 48), same cutoff): C (>=5% of tumors above the cutoff, but <20%); Over-expression category of source gene (target coverage), GBM (source genes (mRNA) [1]; GBM = Glioblastoma multiforme (N = 169), same cutoff): B (>= 20% of tumors above the cutoff, but <50%); Over-expression category of source gene (target coverage), LAML (source genes (mRNA) [1]; LAML = Acute Myeloid Leukemia (N = 173), same cutoff): B (>= 20% of tumors above the cutoff, but <50%); Over-expression category of source gene (target coverage), LUAD (source genes (mRNA) [1]; LUAD = Lung adenocarcinoma (N = 517), same cutoff): C (>=5% of tumors above the cutoff, but <20%); Over-expression category of source gene (target coverage), LUSC (source genes (mRNA) [1]; LUSC = Lung squamous cell carcinoma (N = 503), same cutoff): C (>=5% of tumors above the cutoff, but <20%); Over-expression category of source gene (target coverage), OV (source genes (mRNA) [1]; OV = Ovarian serous cystadenocarcinoma (N = 309), same cutoff): B (>= 20% of tumors above the cutoff, but <50%); Over-expression category of source gene (target coverage), UCEC (source genes (mRNA) [1]; UCEC = Uterine corpus endometrial carcinoma (N = 546), same cutoff): B (>= 20% of tumors above the cutoff, but <50%); Expression score NSCLC (source genes (mRNA) [2]): ++; Expression score OC (source genes (mRNA) [2]): +++; Expression score UEC (source genes (mRNA) [2]; uterine cancer (N = 10) vs panel of normal tissues): +++
79: peptide found in CBX4 (gene looked up) (VTFKEYVTV; listed as Homo sapiens) [compound 79]	++++	++++	++++	GC, NSCLC, OSCAR	C (>=5% of tumors above the cutoff, but <20%)	B (>= 20% of tumors above the cutoff, but <50%)	C (>=5% of tumors above the cutoff, but <20%)	C (>=5% of tumors above the cutoff, but <20%)	C (>=5% of tumors above the cutoff, but <20%)	C (>=5% of tumors above the cutoff, but <20%)	C (>=5% of tumors above the cutoff, but <20%)	C (>=5% of tumors above the cutoff, but <20%)	C (>=5% of tumors above the cutoff, but <20%)	B (>= 20% of tumors above the cutoff, but <50%)	B (>= 20% of tumors above the cutoff, but <50%)	+	+	+			Target coverage: over-expression category of source gene, CHOL (source genes (mRNA) [1]; Cholangiocarcinoma (N = 36), cutoff more than 2-fold above highest 75% percentile of normal tissue samples): C (>=5% of tumors above the cutoff, but <20%); Target coverage: over-expression category of source gene, LGG (source genes (mRNA) [1]; Lower grade glioma (N = 534), cutoff more than 2-fold above highest 75% percentile of normal tissue samples): C (>=5% of tumors above the cutoff, but <20%); Expression score HCC (source genes (mRNA) [2]; hepatocellular carcinoma (N = 15) vs panel of normal tissues): +
